Reference: article PMC10845952
These are yes or no findings as the source states them, for the method shown. Binding seen in cells or lysates may run through a third protein. A yes stands for co-enrichment or nearness to the bait. Other partners may have been found. Sequences can lack the tags named with a protein.

T1: MecA with C-terminal tandem affinity purification (TAP) tag (3x HA + FLAG) (S. mutans) (UniProt Q8DW33)
T1 sequence: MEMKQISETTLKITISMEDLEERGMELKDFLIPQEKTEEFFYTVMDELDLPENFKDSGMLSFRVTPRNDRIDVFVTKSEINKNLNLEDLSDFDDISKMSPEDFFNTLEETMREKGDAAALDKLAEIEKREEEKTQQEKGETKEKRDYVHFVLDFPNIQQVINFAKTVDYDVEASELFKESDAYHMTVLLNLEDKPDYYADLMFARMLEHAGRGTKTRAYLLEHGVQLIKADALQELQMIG

B1: Fructose-bisphosphate aldolase, FbaA (protein, UniProt Q8DWG0 1-293)
chain: MAIVSAEKFVQAARDNGYAVGGFNTNNLEWTQAILRAAEAKKAPVLIQTSMGAAKYMGGYKLCKVLIETLVESMGITVPVAIHLDHGHYEDALECIEVGYTSIMFDGSHLPVEENLEKAKEVVAKAHAKGISVEAEVGTIGGEEDGIIGRGELAPIDDAKAMVETGIDFLAAGIGNIHGPYPANWEGLDLDHLKKLTEAVPGFPIVLHGGSGIPDDQIRAAIKLGVAKVNVNTECQIAFANATRKFAAEYEANEAEYDKKKLFDPRKFLKPGFEAITEAVEERIDVFGSEGKA
B2: Glycogen/starch/alpha-glucan phosphorylase, PhsG (protein, UniProt Q8DT55 1-798)
chain: MQLTKEKFIRDFKDTLHEEQLIKIPEATPTELFASLAKVVRKYYTPLWLERNRKISQNQQKVAYYFSIEFLPGRMLETNLLNLGILDTVKEGFAELGVNFEDVKNAEHDMALGNGGLGRLAAAFMDSLATTGYPGFGNGLRYKYGLFKQRIVDGYQVELPDSWFGSVGNVWETRKDHDAVEVKLFGNVYLQANERGRIVPVYDGAQILRAIPYDVPQIGFGNDNINNLRLWDVEIPEECELNYPTLESRRRVKNITAILYPDDSNYEGKELRLIQEYFMTSAGLQTIIKSYLKQGLPLERIHEKISVHINDTHPAVAPAEFMRLLIDEYDLEWDQAWETTVQTMSYTNHTILSEALEKWDAGLFKNVLPRVYQIILEIDNRFVAGLAQKGIDPQIIENTRIVKDNQIHMANLAIIGGHSVNGVAKLHTELLKEDTLHDFYTLYPGKFNNKTNGIVQRRWTQIAAPELSAALDQTIGNSWRTDIHELRKLNDFANDSAVLDHFYQVKQDAKAKLAAYIKESTGVEVSTDAIFDVQVKRLHAYKRQLLNVLHIVKLYWDLKDNPNLDMVPRVFIFGAKAAPGYHFAKSVIKIINELANLINSDESLQGKLKVVFLENYNVSLAELIIPAANVSEQISLASKEASGTSNMKFMMTGAVTLATLDGANIEIKDEVGDENIVIFGMTKDDVYRHYENHDYYSRGVYESNPVIKRVVDTFINGTIPNSQSEGTEIYEALITHNDEYFLLEDFIAYVQAQEKIDALYRDKETWSRMSLCNIANSDKFTSDDTITQYAKEIWHLEI
B3: Heat-inducible transcriptional repressor, HrcA (protein, UniProt O06940 1-344)
chain: MITQRQKDILNLIVELFTKTHEPIGSKTLQNSIASSSATIRNDMAALEKLGLLEKAHTSSGRLPSQEGFRYFVEHSLNPDSLDEQDVYQVIKAFDFEAFRLGDLLQRASDVLANLTGYTALILDVEPKKQRLTTFDIVKLSNHDALAVLTLDEASPVTVQFAIPKNFLDSDLMTVAKIARERFLNQTVLDIHYRLRTELPQIIQKYFPRTDNVLDLFDHIFNPIFQEEVFISGKIKTLEFAGLNTYQFLENLQSVALEIRQSLPEDELHRVQVADSKEKSLADLTVISQKFLIPYRGFGILTVIGPVDLDYQRTISLINVISRVLAVKLGDFYRYLNSNHYEVH
B4: Glycogen/starch/alpha-glucan phosphorylase, GlgP (protein, UniProt Q8DT31 1-758)
chain: MTQKTKQFSKYVQEKTGQNLEQLSNEAIYVQLLHFVKEAAKDMPKNTSKRKVYYISAEFLIGKLLSNNLINLGLYKTVKDELAAAGKSISQVEDVELEPSLGNGGLGRLASCFIDSMATLGINGEGVGLNYHCGLFKQVFRDNQQEAEPNYWIEDDSWLVPTAISYDVPFRDFTLKSKLDRIDILGYHKDSKNYLNLFDIDGLDYGLIKDGITFDKTEIKKNLTLFLYPDDSDKNGELLRIYQQYFMVSNAAQLLIDEALERGSNLHDLADYAYVQINDTHPSMVIPELIRLLNEKHGLDFYEAVDIVKNMIGYTNHTILAEALEKWPLEYLNEVVPHLVTIIEHLDRIVRSQYKDDAVQIIDRDDRVHMAHMDIHFSTSVNGVAALHTDILKNSELKPFYDIYPEKFNNKTNGITFRRWLEFANQDLAAYIKELIGEGYLEDATELEKLLAFADDKTVHEQLAKIKFNNKLALKRYLKENKGINLDENSIIDTQIKRFHEYKRQQMNALYVIYKYLEIKKGNLPKRKITVIFGGKAAPAYTIAQDIIHLILCLSELINNDPDVSPYLNVFLVENYNVTVAEKLIPATDISEQISLASKEASGTGNMKFMLNGALTLGTMDGANVEIAELVGSDNIYIFGKDSDTIIDLYDKGTYVSKDYYTNNAVIKEAVDFIVSKDVLALGKKERLERLYHELINKDWFMTLIDLKEYIAKKEEMLADYEDQNVWNKKVIQNIAKAGFFSSDRTIQQYDKDIWHSL
B5: NAD-dependent malic enzyme, MleS (protein, UniProt Q8DWC7 1-540)
chain: MYAHDILNDPFLNKGTAFTMEERKKFGLIGLLPPHIQTLKEQAEQTYAQMQTKANNLEKRLFLMEIFNTNRTLFYYLFSQHLEELNPIVYDPTIADTIEGYSDLFVDPQYAGYLDINHPENIEATLKNAAGDRDIRLIVVTDAEGILGIGDWGTNGVDISVGKLMVYTGAAGIDPVTVLPLVIDAGTNREELRNNPNYLGNRHERVRGERYYDFVDQFVQTAERLFPKLYLHWEDFGRSNAANILEKYRKEIPTFNDDIQGTGIVTLGGIFAAMDITGEKLTDQVYLCYGGGTAGAGIASRVLREMVSEGLPEDEAYKRFFMVDKQGLLFDDMDDLTPEQKPFAKKRADFPNADQLTDLLQVVKTVKPTILVGTSTNPGAFTKEVVEAMCENTERPVIFPISNPTKLAEASAQDLITWSDGKAFVATGIPADTVSYKGVDYVIGQANNALIYPGLGLGMLASEASLLTDEMIGAAAHSLSGIIDITKPGAPVLPPFKYVGDVSIKVAEAVAKKAQEQGLARAEETDMAKAVRDFKWYPEY
B6: Trk system potassium transporter, TrkA (protein, UniProt Q8DSR3 1-451)
chain: MKIIVVGGGKVGKALCRSLVEEEHDVILIEENESVLNHVTKRLDIMGIVGNGANFRILEQADVQHCDIFIAITDKDEVNMVAAVLAKRMGAKETIVRVRNPEYSNTYFKDKNFLGFSLVVNPELLTARYIANMVDFPNARSVEHFVNGRVMLMEFKIVDGNNLCQMSLNQFRKRFNNIVICAIERGNELIIPDGDAVIQSGDKIFVTGKRMEMIHFHNFVKNKVIKHLMIIGAGRISYYLLNILKTTNRHLQVKVIELNPKKAELFSQEFPHIHVVQGDGTAKDILLEESAANYDAIATLTGVDEENIIASMFLETLGVQKNITKVNRTSILEIINPEQFSSIITPKSIAVDSMMHFIRGRVNAQDSNLDAMHHVANGRIETLQFEIRQTNKMAGKTLSELHFKTNVLIAAIIRNGKTIFPTGDDILEVGDKIVVITLLTNITHIYDLLKR
B7: Bifunctional acetaldehyde-CoA/alcohol dehydrogenase, AdhE (protein, UniProt Q8DWB9 1-889)
chain: MAKETKTEALTAEEAAKQYTNSLVEKALKAEKVYATYTQEQVDKIVAAMALAGSEASLQLAKEAHDETGRGVVEDKDTKNHFATEYVYERIKNEKTVGIIGEDKVAGSIEIAAPLGVLAGIVPTTNPTSTTMFKILVALKTRNAIVFAFHPAAQKCSAHAAQILYDAAVKAGAPENIVQWIETPSIANTGALISNKGIASILATGGPGMVNAALKSGNPSMGVGAGNGAVYVDATANLERAVEDLLLSKRFDNGMICATENSAVVEAPIYKEWLAKMQEKGAYLVPKKDYKKFEDFVFNDNHGVNGPVAGMSAKWICEQAGVTLPEGKDVLLFELDKKKIGEKLSSEKLSPLLSVYKAKDRKDGIDIVAALLDYQGAGHNCAIQIGSQADPFVAEYGDALNSSRVLVNQPDSVGGIGDVYTDALQASLTLGTGSWGKNSLSHNLSTGDLLNVKTVAKRRNRPQWVRLPEKTYYEKNAISYLQDETETMTRAIIVADPGMLQFGFVDTVLAQLSLRDEKVATSIYGTIKPDPTLGQTIEIARQMRDFKPDTVIAVGGGSALDAAKIARYIYEYSLDQEADFLDSYEKVSELFLELQQKFIDIRKRIVRFKHQTVTRLFCIPTTSGTGSEVTPYAVITDDFTHVKYPLTDYELTPQVAIVDPEFVMTVPKRTVALSGLDTLSHALESYVSVMASDFTRPWSMEAIRLVIENLEDSYNFDPKNPTLRGEQARENMHYAATLAGMAFSNAFLGINHSLAHKAGGEFGLPHGLAISIAMQHVIRYNGVAGNVKRSVYPRYEEYRAQRDYADIARALGLKGKDDAELVEALCARIDQLMHAVDVEPKLSANGVTKKAFDAAVDRLASLAYDDQCTPANPRQPYIEEMKQLLIDQF
B8: Dipeptidase PepV, PepV (protein, UniProt Q8DTT4 1-470)
chain: MFVDFQKEVDKRRGDILADLFRILQINSERDDSKADKKHPFGPGPVQALEHFLKMAERDGYETKNVNNYAGHFEYGQGDEVLGIFAHLDVVPAGSGWKTSPYLPEIINGKLYARGASDDKGPTIACYYGLKIIKELGLPVSKKVRFVVGTDEESGWADMDYYFEHVDMPEPDFGFSPDAYFPIINGEKGNITEYLHFGNSNGGSFILKSFKGGLRENMVPESATAVFSATICLAELQESLTAFTEQHALTADLKEEAGNFVLTLHGKSAHGSTPEAGINGATYLARFLSQFDFAGDAKAYLDLAANVLLDDHAGEKLGVAYKDEKMGSVSMNPGVFSFDSQSEDNSIALNFRYPQGTDAQTIKASLEQLSVSGVREVTLSEHEQKPHYVPMDDPLVATLLAVYEKHTGDKGHEWVIGGGTFGRLLKRGVAFGAMFPHSTDTMHQANEFVEVNDLYKAAAIYAEAIYELIK
B9: Type I restriction-modification system subunit M, HsdM (protein, UniProt Q8DUM7 1-534)
chain: MSFNKESQQRQELHQKIWAIADNVRGAVDGWDFKQYILGILFYRFISENMSDYFDRAEHEAGDPDFRYADLSDEEAEEDFKPDTVEEKGFFILPSQLFENIVKTASTNENLNTDLAKIFKKIEESAIGKDSEHAIKGLFDDVDTTSNRLGGSVKEKNKRLSDILTGIAGLDFGTFEENDIDAFGDAYEYLISNYASNAGKSGGEFFTPQTVSKLLAQLVMVGKEHINKVYDPTCGSGSLLLQMKKQFETHILEEGFFGQEINMTNYNLARMNMFLHNINYNNFDIRRGDTLLNPQHLYERPFDAIVSNPPYSIKWIGDADPTLINDERFAPAGKLAPKSKADFAFIMHSLSHLSNKGRAAIVCFPGIFYRGGAEKTIRQYLIDNNFVEAVIALPDNLFYGTSIATYILVLAKNKPEDKTLFIDASSDEKSTVSGKNKFYETVTNGKILNPKNIEAIVELFKNKKDVDYEAKLVDNNLIAEENDYNLSVSTYVEKRDTREIINIDELNKEIAETVKKIDHLRSEIDKIVEELSHD

biological target: T1, MecA with C-terminal tandem affinity purification (TAP) tag (3x HA + FLAG) (S. mutans); experiment: affinity purification with mass spectrometry; MecA with C-terminal TAP tag (3x HA + FLAG) as bait; S. mutans grown to mid-logarithmic phase, formaldehyde crosslinked; anti-FLAG affinity resin, then anti-HA affinity resin; LC-MS/MS; three experiments; >=2-fold enrichment of spectral counts over the untagged wild type

**Q.** How did the binding turn out when B1 was run?
**A.** binds

**Q.** How did the binding turn out when B2 was run?
**A.** binds

**Q.** How did the binding turn out when B3 was run?
**A.** binds

**Q.** B4 was tested. Which binding did it give?
**A.** binds

**Q.** Which binding does the source give for B5 here?
**A.** binds

**Q.** How did the binding turn out when B6 was run?
**A.** binds

**Q.** With B7 as the binder, how does the binding read?
**A.** binds

**Q.** How did the binding turn out when B8 was run?
**A.** binds

biological target: T1, MecA with C-terminal tandem affinity purification (TAP) tag (3x HA + FLAG) (S. mutans); experiment: affinity purification with mass spectrometry

**Q.** With B9 as the binder, how does the binding read?
**A.** binds
